Measurements reported in PubChem BioAssay AID1159578 (Peter MacCallum Cancer Centre, 2015)

Purpose: 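Genome-wide hunt for genes controlling movement of lymphatic endothelial cells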 (primary screen)
Cells: human lymphatic endothelial cells
Reagent: siRNA pool against human genes, 40 nM
Time to read-out: 48 h after transfection
Measured: 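High-content imaging of dye-stained cells in a scratch assay measures filled wound area and nuclei per well; duplicate means given as ratio to mock and robust z-score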
Direction: migration robust z-score: higher = faster migration into the scratch; migration relative to mock: higher = more scratch area covered than mock; nuclei per well: higher = more cells in the well
Call rule: 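Migration changed when robust z exceeds 2 or falls below -2 and mean nuclei number is at least 3300; otherwise not called changed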
Meaning of the calls: active = migration changed; inactive = no migration change, or too few cells
The deposit covers about 18,000 reagents; this is a random part of them. About 1,030 of them (5.7%) count as active. 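Inactive calls also include pools with fewer than 3300 nuclei, whose migration was not assessed.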 The raw values are shown without normalisation.

no.	Gene	migration robust z-score	migration class with cell-count check	migration relative to mock	nuclei per well, duplicate mean	outcome
1	EFCAB6 (EF-hand calcium binding domain 6)	0.51	migration z between -2 and 2; enough cells	1.02	5646	inactive
2	PCDHA13 (protocadherin alpha 13)	0.06	migration z between -2 and 2; enough cells	0.9	5984	inactive
3	SERPINB3 (serpin family B member 3)	-0.5	migration z between -2 and 2; enough cells	0.71	5692	inactive
4	CAGE1 (cancer antigen 1)	-0.18	migration z between -2 and 2; enough cells	0.84	4957	inactive
5	SOX6 (SRY-box transcription factor 6)	0.23	migration z between -2 and 2; enough cells	0.95	5116	inactive
6	CPQ (carboxypeptidase Q)	-0.93	migration z between -2 and 2; enough cells	0.62	4928	inactive
7	PCDHGB7 (protocadherin gamma subfamily B, 7)	0.58	migration z between -2 and 2; enough cells	1.04	6011	inactive
8	CRADD (CARD and death domain containing adaptor protein)	0.24	migration z between -2 and 2; enough cells	0.94	5242	inactive
9	EFL1 (elongation factor like GTPase 1)	0.06	migration z between -2 and 2; enough cells	0.9	7172	inactive
10	RAD9A (RAD9 checkpoint clamp component A)	0.05	migration z between -2 and 2; enough cells	0.82	5742	inactive
11	GINS3 (GINS complex subunit 3)	-0.99	migration z between -2 and 2; enough cells	0.63	6352	inactive
12	NKRF (NFKB repressing factor)	-0.41	migration z between -2 and 2; enough cells	0.78	6970	inactive
13	SLAMF6 (SLAM family member 6)	0.26	migration z between -2 and 2; enough cells	0.86	5616	inactive
14	ATP6AP1 (ATPase H+ transporting accessory protein 1)	-0.96	migration z between -2 and 2; enough cells	0.62	6589	inactive
15	IL10RB (interleukin 10 receptor subunit beta)	0.18	migration z between -2 and 2; enough cells	0.84	6701	inactive
16	SNAPC4 (small nuclear RNA activating complex polypeptide 4)	-1.03	migration z between -2 and 2; enough cells	0.62	3760	inactive
17	APBB3 (amyloid beta precursor protein binding family B member 3)	0	migration z between -2 and 2; enough cells	0.88	6040	inactive
18	ELOB (elongin B)	-0.21	migration z between -2 and 2; enough cells	0.76	5453	inactive
19	DDX10 (DEAD-box helicase 10)	0.23	migration z between -2 and 2; enough cells	0.94	6636	inactive
20	RASL12 (RAS like family 12)	-1.64	migration z between -2 and 2; enough cells	0.49	3442	inactive
21	CGRRF1 (cell growth regulator with ring finger domain 1)	0.21	migration z between -2 and 2; enough cells	0.84	3892	inactive
22	GLRA3 (glycine receptor alpha 3)	1.12	migration z between -2 and 2; enough cells	1.02	4632	inactive
23	C1QA (complement C1q A chain)	-3.49	under 3300 nuclei; migration not judged	-0.02	3243	inactive
24	CAPN15 (calpain 15)	0.24	migration z between -2 and 2; enough cells	0.85	5360	inactive
25	MGAT3	-0.49	migration z between -2 and 2; enough cells	0.71	5776	inactive

Continued; the last 3 above are carried over.
no.	Gene	migration robust z-score	migration class with cell-count check	migration relative to mock	nuclei per well, duplicate mean	outcome
23	C1QA (complement C1q A chain)	-3.49	under 3300 nuclei; migration not judged	-0.02	3243	inactive
24	CAPN15 (calpain 15)	0.24	migration z between -2 and 2; enough cells	0.85	5360	inactive
25	MGAT3	-0.49	migration z between -2 and 2; enough cells	0.71	5776	inactive
26	CACNG2 (calcium voltage-gated channel auxiliary subunit gamma 2)	-0.83	migration z between -2 and 2; enough cells	0.64	4076	inactive
27	ZNF507 (zinc finger protein 507)	-0.34	migration z between -2 and 2; enough cells	0.8	6437	inactive
28	GRXCR2 (glutaredoxin and cysteine rich domain containing 2)	0.42	migration z between -2 and 2; enough cells	1	5674	inactive
29	SENP5 (SUMO specific peptidase 5)	-0.02	migration z between -2 and 2; enough cells	0.8	5360	inactive
30	UNC50 (unc-50 inner nuclear membrane RNA binding protein)	-0.92	migration z between -2 and 2; enough cells	0.64	4384	inactive
31	COX7B (cytochrome c oxidase subunit 7B)	1.13	migration z between -2 and 2; enough cells	1.18	5494	inactive
32	E2F7 (E2F transcription factor 7)	-0.09	migration z between -2 and 2; enough cells	0.86	5106	inactive
33	OR2L8 (olfactory receptor family 2 subfamily L member 8)	0.02	migration z between -2 and 2; enough cells	0.9	5748	inactive
34	NOC3L (NOC3 like DNA replication regulator)	2.48	migration z above 2; enough cells	1.53	6205	active
35	ARRDC2 (arrestin domain containing 2)	-1.48	migration z between -2 and 2; enough cells	0.5	5234	inactive
36	FSTL1 (follistatin like 1)	1.44	migration z between -2 and 2; enough cells	1.26	5710	inactive
37	CAMLG (calcium modulating ligand)	2.19	migration z above 2; enough cells	1.44	6212	active
38	KCNE1	0.42	migration z between -2 and 2; enough cells	0.88	6328	inactive
39	FIGLA (folliculogenesis specific bHLH transcription factor)	-1.18	migration z between -2 and 2; enough cells	0.57	4335	inactive
40	IFNLR1 (interferon lambda receptor 1)	0.57	migration z between -2 and 2; enough cells	0.92	6818	inactive
41	SYDE1 (synapse defective Rho GTPase activating protein 1)	0.02	migration z between -2 and 2; enough cells	0.89	3800	inactive
42	CD1A (CD1a molecule)	0.14	migration z between -2 and 2; enough cells	0.92	6338	inactive
43	PAIP2 (poly(A) binding protein interacting protein 2)	-0.46	migration z between -2 and 2; enough cells	0.72	4222	inactive
44	BEND5 (BEN domain containing 5)	0.6	migration z between -2 and 2; enough cells	1.04	6120	inactive
45	RAD51C (RAD51 paralog C)	-0.06	migration z between -2 and 2; enough cells	0.87	7421	inactive
46	OLAH (oleoyl-ACP hydrolase)	0.26	migration z between -2 and 2; enough cells	0.86	5167	inactive
47	FOXA3 (forkhead box A3)	0.52	migration z between -2 and 2; enough cells	0.9	5768	inactive
48	POLR3B (RNA polymerase III subunit B)	-1.84	migration z between -2 and 2; enough cells	0.45	6033	inactive
49	GOT1 (glutamic-oxaloacetic transaminase 1)	0.42	migration z between -2 and 2; enough cells	0.88	6010	inactive
50	MX2 (MX dynamin like GTPase 2)	0.47	migration z between -2 and 2; enough cells	0.9	5008	inactive
51	UBL7 (ubiquitin like 7)	-4.01	under 3300 nuclei; migration not judged	-0.13	2244	inactive
52	OR10G8 (olfactory receptor family 10 subfamily G member 8)	-0.9	migration z between -2 and 2; enough cells	0.66	5692	inactive
53	OCA2 (OCA2 melanosomal transmembrane protein)	-0.11	migration z between -2 and 2; enough cells	0.78	5750	inactive
54	LSM1 (LSM1 homolog, mRNA degradation associated)	0.29	migration z between -2 and 2; enough cells	0.96	6736	inactive
55	HEXA (hexosaminidase subunit alpha)	-0.36	migration z between -2 and 2; enough cells	0.74	5874	inactive
56	SNX25 (sorting nexin 25)	-0.9	migration z between -2 and 2; enough cells	0.66	4479	inactive
57	S1PR5 (sphingosine-1-phosphate receptor 5)	0.28	migration z between -2 and 2; enough cells	0.86	5727	inactive
